Results on one substance are retold here after PMC3618364.

Chains of the proteins cited; added tags and fusions are not shown. Lines headed by an entry give the natural chain unless they say otherwise; changes in a name come on top.
UniProt P32828: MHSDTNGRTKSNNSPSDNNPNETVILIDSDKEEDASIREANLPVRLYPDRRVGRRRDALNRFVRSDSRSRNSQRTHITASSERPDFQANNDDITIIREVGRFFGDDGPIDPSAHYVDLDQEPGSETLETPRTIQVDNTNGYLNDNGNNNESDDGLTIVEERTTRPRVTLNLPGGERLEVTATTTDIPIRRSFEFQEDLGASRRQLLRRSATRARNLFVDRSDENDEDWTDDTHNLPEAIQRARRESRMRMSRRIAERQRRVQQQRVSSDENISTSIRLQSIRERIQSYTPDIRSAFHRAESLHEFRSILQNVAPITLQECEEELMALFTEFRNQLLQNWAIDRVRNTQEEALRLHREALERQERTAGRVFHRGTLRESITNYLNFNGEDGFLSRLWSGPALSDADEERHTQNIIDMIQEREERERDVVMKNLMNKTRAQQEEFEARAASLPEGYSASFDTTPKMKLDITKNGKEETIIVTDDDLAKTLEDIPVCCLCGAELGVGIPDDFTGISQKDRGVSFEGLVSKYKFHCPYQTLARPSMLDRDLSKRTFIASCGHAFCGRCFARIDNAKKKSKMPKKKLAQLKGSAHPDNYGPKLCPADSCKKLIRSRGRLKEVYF
UniProt Q08562: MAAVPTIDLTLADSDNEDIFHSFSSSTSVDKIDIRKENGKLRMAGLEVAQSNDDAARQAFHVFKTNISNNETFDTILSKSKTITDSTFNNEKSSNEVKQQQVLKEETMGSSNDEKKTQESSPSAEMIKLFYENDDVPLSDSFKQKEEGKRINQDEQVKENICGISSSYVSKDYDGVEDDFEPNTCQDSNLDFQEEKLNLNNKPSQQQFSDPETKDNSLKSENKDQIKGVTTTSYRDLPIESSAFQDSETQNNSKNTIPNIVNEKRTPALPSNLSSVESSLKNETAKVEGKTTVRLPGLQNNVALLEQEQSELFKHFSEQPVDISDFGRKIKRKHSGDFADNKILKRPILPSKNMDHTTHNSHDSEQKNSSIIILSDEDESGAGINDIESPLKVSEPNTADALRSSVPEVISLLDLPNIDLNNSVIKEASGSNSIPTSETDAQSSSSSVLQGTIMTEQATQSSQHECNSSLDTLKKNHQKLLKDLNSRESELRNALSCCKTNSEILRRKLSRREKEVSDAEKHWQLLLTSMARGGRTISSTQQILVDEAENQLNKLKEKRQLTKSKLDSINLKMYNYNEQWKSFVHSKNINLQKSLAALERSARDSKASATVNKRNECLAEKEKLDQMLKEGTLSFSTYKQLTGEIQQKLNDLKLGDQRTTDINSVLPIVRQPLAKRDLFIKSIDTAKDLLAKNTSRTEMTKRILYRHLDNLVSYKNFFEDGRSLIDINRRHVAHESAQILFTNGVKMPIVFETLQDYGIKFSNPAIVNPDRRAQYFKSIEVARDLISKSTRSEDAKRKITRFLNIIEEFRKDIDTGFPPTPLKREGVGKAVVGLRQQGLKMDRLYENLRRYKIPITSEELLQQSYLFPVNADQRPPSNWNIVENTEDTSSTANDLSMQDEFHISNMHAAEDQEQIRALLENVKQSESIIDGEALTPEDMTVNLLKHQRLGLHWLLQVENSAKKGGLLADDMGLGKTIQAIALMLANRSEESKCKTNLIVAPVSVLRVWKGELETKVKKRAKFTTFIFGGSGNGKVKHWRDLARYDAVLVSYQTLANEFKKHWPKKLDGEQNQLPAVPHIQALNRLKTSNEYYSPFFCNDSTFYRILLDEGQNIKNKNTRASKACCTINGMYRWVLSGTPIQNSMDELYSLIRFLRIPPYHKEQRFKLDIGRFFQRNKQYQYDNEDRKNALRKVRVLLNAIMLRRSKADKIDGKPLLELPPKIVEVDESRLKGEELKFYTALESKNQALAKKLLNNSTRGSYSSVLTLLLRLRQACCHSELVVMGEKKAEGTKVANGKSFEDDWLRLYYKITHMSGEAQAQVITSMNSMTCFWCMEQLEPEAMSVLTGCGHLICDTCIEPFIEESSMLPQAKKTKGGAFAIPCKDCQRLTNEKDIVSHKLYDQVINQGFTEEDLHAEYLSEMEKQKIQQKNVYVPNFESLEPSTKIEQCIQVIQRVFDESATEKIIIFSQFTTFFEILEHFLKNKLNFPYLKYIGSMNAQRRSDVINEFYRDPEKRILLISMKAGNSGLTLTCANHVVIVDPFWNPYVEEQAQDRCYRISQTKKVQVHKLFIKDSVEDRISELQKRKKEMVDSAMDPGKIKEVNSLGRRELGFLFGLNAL

The target in this experiment is Slx5 with mutations of the SIMs (S. cerevisiae) (UniProt P32828). Description: two-hybrid; Gal4AD and Gal4BD fusions (pGADT7, pGBKT7) in reporter strain PJ69-4A; His (10 mM 3AT) and Ade reporter phenotypes on plates.

Results are given in words; binding and its absence hold for the method and conditions named. A result given as binding can be weak or reduced; the word gives no strength.

Regarding “Gal4AD-Uls1 (1-1619) (from UniProt Q08562 1-1619)”, the binding result was “binds”.
